Measured values taken from patent publication US20240050522A1 (The Regents of the University of Michigan, priority 2020, published 2024).

Experiment: peptide made by a vendor
Settings: whole synthesis, HPLC

PVLDLFRELLNELLEALKQKLK
purity (crude or final not stated) (run 1): approximately 85%
purity (crude or final not stated) (run 2): ˜85%

Plain letter strings leave the end groups untold.
